Laboratory results as given in patent publication US20190375824A1 (PANASONIC INTELLECTUAL PROPERTY MANAGEMENT, published 2019).
These are yes or no findings as the source states them, for the method shown. Some entries that bind do so weakly or less than the wild type.

By UniProt entry, the sequences of proteins in these tests, tags left out. Residues count along the entry.
UniProt P02768, residues 25-609: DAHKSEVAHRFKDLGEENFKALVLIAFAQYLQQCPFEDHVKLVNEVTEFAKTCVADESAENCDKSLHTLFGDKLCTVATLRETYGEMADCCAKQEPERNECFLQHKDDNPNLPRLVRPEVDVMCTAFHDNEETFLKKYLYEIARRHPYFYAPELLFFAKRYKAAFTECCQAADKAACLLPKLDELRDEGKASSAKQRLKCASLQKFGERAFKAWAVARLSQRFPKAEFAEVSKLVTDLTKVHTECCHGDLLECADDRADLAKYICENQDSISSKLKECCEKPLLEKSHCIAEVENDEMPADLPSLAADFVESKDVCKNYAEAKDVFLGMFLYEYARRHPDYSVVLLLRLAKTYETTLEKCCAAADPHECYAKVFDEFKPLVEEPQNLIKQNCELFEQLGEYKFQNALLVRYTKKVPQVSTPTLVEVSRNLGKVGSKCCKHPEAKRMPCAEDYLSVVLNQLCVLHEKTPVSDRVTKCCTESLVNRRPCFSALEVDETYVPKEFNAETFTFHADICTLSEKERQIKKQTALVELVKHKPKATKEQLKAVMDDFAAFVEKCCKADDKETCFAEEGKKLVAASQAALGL

Target: T1, human serum albumin (human, UniProt P02768 25-609)
T1 construct: Antigen in the SPR assay
Assay: SPR

B1: VHH antibody in which glycine in position 78 of SEQ ID NO: 1 was substituted with alanine (SEQ ID NO: 5) (VHH)
VHH: QVQLVESGGGLVQAGDSLRLSCAASGRTFSGYAMGWFRQAPGKEREFVARINWSGTLTYYADSVKGRFTASRDNAKNTVYLQMNSLKPEDTAVYYCAQRGDSGSNYDPSGYSYWGQGTQVTVSS
notes: Expressed in E. coli; also called G78A mutant
**Q.** How did the binding turn out when B1 was run?
**A.** binds
